# In the supplement of paper PMC8846439:
# The other results are listed elsewhere or left out. Many values rest on one well or one pass, so single values are uncertain.
# Test system: Trypanosoma brucei brucei bloodstream form L262P (kDNA-independent)
# Test: viability Z-score (nuclei count per well, median-polish normalised, relative to plate distribution); higher = more viable parasites (negative = growth inhibition)
# Conditions: 4 days; compound concentration: 10 µM (some Prestwick/PKE rows may be 1 µM / not distinguished)
row,Structure (SMILES),viability Z-score
1,O=Nc1ccc(O)c2ncccc12,-4.03
2,[Cl]C=1/C=C(/[Cl])C=CC=1C=4/N=C(/C2=C(\C)NC=3C=CC=CC2=3)C(=NN=4)C5=CC=CC=C5,-2.63
3,[O-][N+](=O)C1=CC(=CC=C1)C=2OC(=CC=2)C([H])(C3=C(O)N/N=C3/C)C4=C(O)N/N=C4/C,-3.04
4,CN(C)S(=O)(=O)c1ccc2nc(NC(=O)C(c3ccccc3)c3ccccc3)sc2c1,-1.72
5,CC=2C=CC(NC(=O)NC=1/C=C(/[F])C=CC=1)=NC=2,-1.88
6,O=[S](=O)(CC[S]CCOC(=O)N/C1=C/C=CC=C1)C2=C/C=C(/[Cl])C=C2,-5.75
